No constants are given. Whether binding was seen depends on the method and setting. Some results given as binding are weak or reduced against the parent protein; the word gives no strength.
How the values were obtained:
[1] = target: T1, SlmA·SBS complex (four SlmA monomers, as two dimers, bound to one SBScons DNA) (E. coli) (UniProt P0C093); test: AUC; sedimentation velocity, 48,000 rpm, 20°C, working buffer (50 mM Tris-HCl, 300 mM KCl, 2 mM MgCl2, pH 7.5); FtsZ-GDP 30 μM total with 6 μM FtsZ-Alexa 488 as tracer, without or with SlmA 15 μM and SBScons 4 μM; both purified
T1 sequence: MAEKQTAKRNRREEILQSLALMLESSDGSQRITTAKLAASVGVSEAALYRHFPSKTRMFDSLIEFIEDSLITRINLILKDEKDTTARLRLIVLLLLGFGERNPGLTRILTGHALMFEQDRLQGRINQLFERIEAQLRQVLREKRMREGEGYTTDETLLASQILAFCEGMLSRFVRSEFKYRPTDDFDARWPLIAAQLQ

[2] = target: T1, SlmA·SBS complex (four SlmA monomers, as two dimers, bound to one SBScons DNA) (E. coli); test: SEC-MALS; FtsZ-GDP with SlmA·SBS, 300 mM KCl and neutral pH; data not shown; both purified

- binding [1]: binds
- binding [2]: binds
B1: E. coli FtsZ (natural protein, UniProt P0A9A6 1-383, looked up)
chain: MFEPMELTNDAVIKVIGVGGGGGNAVEHMVRERIEGVEFFAVNTDAQALRKTAVGQTIQIGSGITKGLGAGANPEVGRNAADEDRDALRAALEGADMVFIAAGMGGGTGTGAAPVVAEVAKDLGILTVAVVTKPFNFEGKKRMAFAEQGITELSKHVDSLITIPNDKLLKVLGRGISLLDAFGAANDVLKGAVQGIAELITRPGLMNVDFADVRTVMSEMGYAMMGSGVASGEDRAEEAAEMAISSPLLEDIDLSGARGVLVNITAGFDLRLDEFETVGNTIRAFASDNATVVIGTSLDPDMNDELRVTVVATGIGMDKRPEITLVTNKQVQQPVMDRYQQHGMAPLTQEQKPVAKVVNDNAPQTAKEPDYLDIPAFLRKQAD
notes: Cell division protein FtsZ of E. coli; The nucleotide state (GDP: oligomers); In AUC and FCS a tracer share of FtsZ labelled on amine groups with Alexa Fluor 488 (FtsZ-Alexa 488) was mixed with unlabelled FtsZ; also called FtsZ-GDP; FtsZ-GTP; source: isolated as described elsewhere [40]
